According to article PMC3753650:
Construct, isoform or probe ends are uncertain for at least one entry. For some of these results: A weaker result is weaker than the reference pair of the same experiment. For some of these results: At least one verdict was read from the data and is not stated in words by the source.

Columns and labels:
[1] = tested on: RNA polymerase sigma70 holoenzyme, molecular beacon derivative (Ec Esigma70 beacon) (Escherichia coli); assay: RNAP beacon fluorescence; conditions: Equilibrium RNAP molecular beacon fluorescence, 25 C and 1 nM RNAP in competition assays, Kd error 20% (>0.4 nM), ~50% (0.2-0.4 nM)
[2] = tested on: RNA polymerase sigma70 holoenzyme, molecular beacon derivative (Ec Esigma70 beacon) (Escherichia coli); assay: competition with a labelled probe; conditions: 25 C, Equilibrium RNAP molecular beacon fluorescence, 25 C and 1 nM RNAP in competition assays, Kd error 20% (>0.4 nM), ~50% (0.2-0.4 nM)
[3] = range over variants, letters put together from the description

“TATTTGACATCAGGAAAATTTTTCTGTAT (double strand) [probe 20]”: binds more weakly ([1]; -10 T/A bp inhibits binding relative to probe 19).

“TATTTGACATCAGGAAAATTTTTCTGTAG / ACAGAAAAATTTTCCTGATGTCAAATA [probe 3(-10G)]”: binds more weakly [1, 3].

“TATTTGCTTTCAGGAAAATTTTTCTGTATAAT / CAGAAAAATTTTCCTGAAAGCAAATA [probe 8]”: binds ([2]; [-58/-14] competitor).

“TGGTTGACTTTTGCCAGATACTGAGGCTGGCTATG / GCCTCAGTATCTGGCAAAAGTCAACCA [probe 14]”: binds ([1]; considerably tighter than probe 12).

“TATTTGACATCAGGAAAATTTTTCTGTTGTTT / ACAGAAAAATTTTCCTGATGTCAAATA [probe 11]”: binds [1].

“TATTTGACATCAGGAAAATTTTTCTGTAGTTT / ACAGAAAAATTTTCCTGATGTCAAATA [probe 10]”: binds [1].

“TATTTGACATCAGGAAAATTTTTTGGTATAA / ACCAAAAAATTTTCCTGATGTCAAATA [probe 17]”: binds ([1]; tighter than probe 15).

“GCTAAAATTTTTTTTAAAAGTATTTGACATCAGGAAAATTTTTTG (double strand) [[-58/-14]]”: binds ([2]; displaces probe 8 from RNAP beacon).

“TATTTGACATCAGGAAAATTTTTCTGTA / ACAGAAAAATTTTCCTGATGTCAAATA [probe 2]”: binds ([1]; tighter than probe 3).

“TATTTGACATCAGGAAAATTTTTTGGT (double strand) [probe 15]”: binds [1].

“TATTTGACATCAGGAAAATTTTTCTGTATAAT / ACAGAAAAATTTTCCTGATGTCAAATA [probe 6]”: binds ([1]; too tight for direct Kd).

“TATTTGACATCAGGAAAATTTTTCTGTAT / ACAGAAAAATTTTCCTGATGTCAAATA [probe 3]”: binds more weakly ([1]; weaker than probe 2).

“GGAAAATTTTTTGGTATAATAGA / ACCAAAAAATTTTCC [probe 9]”: binds [1].

“TATTTGACATCAGGAAAATTTTTTGGAA / TCCAAAAAATTTTCCTGATGTCAAATA [probe 16(-12A)]”: binds more weakly ([1]; about equal to 15(-12A)).

“TATTTGACATCAGGAAAATTTTTTGGTA / ACCAAAAAATTTTCCTGATGTCAAATA [probe 16]”: binds ([1]; tighter than probe 15).

“TATTTGACATCAGGAAAATTTTTCTGTAA / ACAGAAAAATTTTCCTGATGTCAAATA [probe 3(-10A)]”: binds more weakly [1, 3].
